Data reported in the supplement of paper PMC11451515.

Legend:
NOMO1 = test: AUC of viability dose-response curve (% viability x log10 dose units); higher = less sensitive; details: 48 h
In short: (§1)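 Over 48 h at 37°C, leukemia cells in 1536-well plates (500 or 1000 cells/well), adapted to each medium, received library compounds in DMSO at 11 threefold doses from 47 μM to 0.79 nM. CellTiter-Glo One luminescence, normalised per plate to DMSO and cell-free wells, was fitted by a four-parameter log-logistic function of log10 dose. The area under the curve was then integrated by trapezoidal rule, after scaling curves above full viability and removing those that failed quality control.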

P12-Ichikawa = test: as above; details: 48 h
In short: as §1

[1] = RPMI 5 mM glucose + 10% dialyzed FBS

With `Cc1cc(N[S+](=O)([O-])c2ccc(N)cc2)no1` the “AUC of viability dose-response curve” value (NOMO1; HPLM + 10% dialyzed FBS) was 466, the “AUC of viability dose-response curve” value (NOMO1; RPMI 5 mM glucose + 10% FBS) was 477 and the “AUC of viability dose-response curve” value (NOMO1; [1]) was 471. For the same compound, the “AUC of viability dose-response curve” value (P12-Ichikawa; HPLM + 10% dialyzed FBS) was 474, the “AUC of viability dose-response curve” value (P12-Ichikawa; RPMI 5 mM glucose + 10% FBS) was 474 and the “AUC of viability dose-response curve” value (P12-Ichikawa; [1]) was 474.
